Results are given in words; binding and its absence hold for the method and conditions named. Binding seen in cells or lysates may run through a third protein. Binding calls can cover weak binding; strength is not graded here. Sequences can lack the tags named with a protein.

For four molecules, binding results are on record in article PMC4091708.

Holding throughout (assay): co-IP; epitope-tagged proteins co-overexpressed by transient transfection in S2r+ cells; lysis in 50 mM Tris-Cl pH 7,5, 150 mM NaCl, 1% NP40, 0.2% Na-Deoxycholate with protease inhibitors; anti-Myc or anti-GFP IP overnight at 4°C on Protein A/G Sepharose; Western blot for the other tag
Background: A western blot detects proteins with antibodies after separation by electrophoresis.

The target in assay [1] is T1, Otk-Myc (Myc-tagged Off-track) (Drosophila melanogaster) (UniProt Q6AWJ9).
T1 sequence: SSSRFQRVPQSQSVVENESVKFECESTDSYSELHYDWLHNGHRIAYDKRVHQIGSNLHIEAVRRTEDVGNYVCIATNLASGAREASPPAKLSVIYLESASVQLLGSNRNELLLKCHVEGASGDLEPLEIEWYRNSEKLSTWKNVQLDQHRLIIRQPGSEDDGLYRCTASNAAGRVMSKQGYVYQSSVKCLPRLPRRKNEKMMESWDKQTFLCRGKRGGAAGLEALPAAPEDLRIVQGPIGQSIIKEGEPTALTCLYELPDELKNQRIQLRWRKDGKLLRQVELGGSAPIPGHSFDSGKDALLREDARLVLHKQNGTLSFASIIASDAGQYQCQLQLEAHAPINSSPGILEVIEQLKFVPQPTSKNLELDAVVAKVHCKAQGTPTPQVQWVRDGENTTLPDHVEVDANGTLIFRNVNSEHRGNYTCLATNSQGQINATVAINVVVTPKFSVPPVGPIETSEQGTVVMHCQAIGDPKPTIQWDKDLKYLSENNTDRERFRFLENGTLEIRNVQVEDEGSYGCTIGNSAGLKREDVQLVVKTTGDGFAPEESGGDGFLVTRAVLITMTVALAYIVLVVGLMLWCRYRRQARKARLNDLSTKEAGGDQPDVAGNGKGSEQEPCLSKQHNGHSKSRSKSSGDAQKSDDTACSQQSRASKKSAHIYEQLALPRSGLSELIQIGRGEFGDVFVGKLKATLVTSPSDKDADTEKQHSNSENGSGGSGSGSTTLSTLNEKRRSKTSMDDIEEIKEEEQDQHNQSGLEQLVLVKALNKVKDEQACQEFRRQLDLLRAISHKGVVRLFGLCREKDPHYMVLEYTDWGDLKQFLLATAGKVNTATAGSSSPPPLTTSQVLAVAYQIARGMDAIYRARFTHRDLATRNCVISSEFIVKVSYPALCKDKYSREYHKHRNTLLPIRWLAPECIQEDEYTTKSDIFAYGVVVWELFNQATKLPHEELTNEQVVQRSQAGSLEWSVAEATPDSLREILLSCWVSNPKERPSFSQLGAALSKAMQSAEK

Assay [2] has as its target T2, OtkDeltaCy-Myc (Myc-tagged Otk lacking the cytoplasmic domain, aa 776–1033) (Drosophila melanogaster) (UniProt Q6AWJ9).
T2 sequence: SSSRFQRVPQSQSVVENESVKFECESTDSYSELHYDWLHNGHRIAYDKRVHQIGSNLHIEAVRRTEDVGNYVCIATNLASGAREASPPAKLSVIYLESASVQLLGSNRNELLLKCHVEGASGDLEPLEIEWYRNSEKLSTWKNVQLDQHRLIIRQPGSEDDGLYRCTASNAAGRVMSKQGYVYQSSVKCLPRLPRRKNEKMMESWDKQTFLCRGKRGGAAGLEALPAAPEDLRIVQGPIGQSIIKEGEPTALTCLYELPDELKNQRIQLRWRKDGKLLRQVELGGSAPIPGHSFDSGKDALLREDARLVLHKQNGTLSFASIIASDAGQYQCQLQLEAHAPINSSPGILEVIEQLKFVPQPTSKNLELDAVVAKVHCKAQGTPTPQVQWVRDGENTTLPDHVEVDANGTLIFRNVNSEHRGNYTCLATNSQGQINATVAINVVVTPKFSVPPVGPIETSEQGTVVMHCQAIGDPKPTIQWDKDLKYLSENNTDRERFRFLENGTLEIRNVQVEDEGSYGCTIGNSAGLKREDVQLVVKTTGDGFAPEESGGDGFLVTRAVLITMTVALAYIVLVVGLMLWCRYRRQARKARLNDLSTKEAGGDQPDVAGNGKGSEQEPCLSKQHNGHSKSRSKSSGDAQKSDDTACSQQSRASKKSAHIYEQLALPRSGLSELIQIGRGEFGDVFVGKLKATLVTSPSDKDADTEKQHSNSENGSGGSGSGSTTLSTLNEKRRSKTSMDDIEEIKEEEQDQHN

For assay [3], the target named is T3, OtkDeltaEx-Myc (Myc-tagged Otk lacking the extracellular domain, aa 2–474) (Drosophila melanogaster) (UniProt Q6AWJ9).
T3 sequence: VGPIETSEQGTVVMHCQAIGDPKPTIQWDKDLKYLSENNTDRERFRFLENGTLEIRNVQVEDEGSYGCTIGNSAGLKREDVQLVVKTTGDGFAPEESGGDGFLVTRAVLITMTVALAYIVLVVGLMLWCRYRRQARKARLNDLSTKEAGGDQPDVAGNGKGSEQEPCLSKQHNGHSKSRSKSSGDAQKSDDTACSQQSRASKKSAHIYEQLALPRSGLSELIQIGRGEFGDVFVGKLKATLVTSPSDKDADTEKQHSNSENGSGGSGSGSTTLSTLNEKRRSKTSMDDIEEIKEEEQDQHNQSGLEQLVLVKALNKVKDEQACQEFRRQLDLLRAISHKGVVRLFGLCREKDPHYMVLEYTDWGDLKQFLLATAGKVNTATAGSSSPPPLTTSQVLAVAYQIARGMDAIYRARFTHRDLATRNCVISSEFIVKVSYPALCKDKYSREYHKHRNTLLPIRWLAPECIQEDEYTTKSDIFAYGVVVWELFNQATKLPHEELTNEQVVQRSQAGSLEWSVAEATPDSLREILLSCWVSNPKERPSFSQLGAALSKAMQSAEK

Assay [4] deals with Otk2-Myc (Myc-tagged Off-track2) (Drosophila melanogaster).
Assay [5] has as its target Otk2-GFP (GFP-tagged Off-track2) (Drosophila melanogaster).

For the molecule “Otk2-GFP (GFP-tagged Off-track2) (Drosophila melanogaster) (receptor)”, the binding entry in assay [1], in assay [2] and in assay [3] was “binds” each time.

B1: Otk-GFP (GFP-tagged Off-track) (receptor, UniProt Q6AWJ9 23-1033)
chain: SSSRFQRVPQSQSVVENESVKFECESTDSYSELHYDWLHNGHRIAYDKRVHQIGSNLHIEAVRRTEDVGNYVCIATNLASGAREASPPAKLSVIYLESASVQLLGSNRNELLLKCHVEGASGDLEPLEIEWYRNSEKLSTWKNVQLDQHRLIIRQPGSEDDGLYRCTASNAAGRVMSKQGYVYQSSVKCLPRLPRRKNEKMMESWDKQTFLCRGKRGGAAGLEALPAAPEDLRIVQGPIGQSIIKEGEPTALTCLYELPDELKNQRIQLRWRKDGKLLRQVELGGSAPIPGHSFDSGKDALLREDARLVLHKQNGTLSFASIIASDAGQYQCQLQLEAHAPINSSPGILEVIEQLKFVPQPTSKNLELDAVVAKVHCKAQGTPTPQVQWVRDGENTTLPDHVEVDANGTLIFRNVNSEHRGNYTCLATNSQGQINATVAINVVVTPKFSVPPVGPIETSEQGTVVMHCQAIGDPKPTIQWDKDLKYLSENNTDRERFRFLENGTLEIRNVQVEDEGSYGCTIGNSAGLKREDVQLVVKTTGDGFAPEESGGDGFLVTRAVLITMTVALAYIVLVVGLMLWCRYRRQARKARLNDLSTKEAGGDQPDVAGNGKGSEQEPCLSKQHNGHSKSRSKSSGDAQKSDDTACSQQSRASKKSAHIYEQLALPRSGLSELIQIGRGEFGDVFVGKLKATLVTSPSDKDADTEKQHSNSENGSGGSGSGSTTLSTLNEKRRSKTSMDDIEEIKEEEQDQHNQSGLEQLVLVKALNKVKDEQACQEFRRQLDLLRAISHKGVVRLFGLCREKDPHYMVLEYTDWGDLKQFLLATAGKVNTATAGSSSPPPLTTSQVLAVAYQIARGMDAIYRARFTHRDLATRNCVISSEFIVKVSYPALCKDKYSREYHKHRNTLLPIRWLAPECIQEDEYTTKSDIFAYGVVVWELFNQATKLPHEELTNEQVVQRSQAGSLEWSVAEATPDSLREILLSCWVSNPKERPSFSQLGAALSKAMQSAEK
As for B1, in assay [4], the binding entry is given as “binds”.

B2: Fz2-Myc (Myc-tagged Frizzled2) (receptor, UniProt Q9VVX3 23-694)
chain: DGPLHSADHGMGGMGMGGHGLDASPAPGYGVPVIPKDPNLRCEEITIPMCRGIGYNMTSFPNEMNHETQDEAGLEVHQFWPLVEIKCSPDLKFFLCSMYTPICLEDYHKPLPVCRSVCERARSGCAPIMQQYSFEWPERMACEHLPLHGDPDNLCMEQPSYTEAGSGGSSGGSGGSGSGSGSGGKRKQGGSGSGGSGAGGSSGSTSTKPCRGRNSKNCQNPQGEKASGKECSCSCRSPLIFLGKEQLLQQQSQMPMMHHPHHWYMNLTVQRIAGVPNCGIPCKGPFFSNDEKDFAGLWIALWSGLCFCSTLMTLTTFIIDTERFKYPERPIVFLSACYFMVAVGYLSRNFLQNEEIACDGLLLRESSTGPHSCTLVFLLTYFFGMASSIWWVILSFTWFLAAGLKWGNEAITKHSQYFHLAAWLIPTVQSVAVLLLSAVDGDPILGICYVGNLNPDHLKTFVLAPLFVYLVIGTTFLMAGFVSLFRIRSVIKQQGGVGAGVKADKLEKLMIRIGIFSVLYTVPATIVIGCYLYEAAYFEDWIKALACPCAQVKGPGKKPLYSVLMLKYFMALAVGITSGVWIWSGKTLESWRRFWRRLLGAPDRTGANQALIKQRPPIPHPYAGSGMGMPVGSAAGSLLATPYTQAGGASVASTSHHHLHHHVLKQPAASHV
On to B2, for which, in assay [5], the binding result was “binds”.

B3: Wnt2-Myc (Myc-tagged Drosophila Wnt2) (ligand, UniProt P28465 24-352)
chain: FTSVMLCGRIPGLTPGQRNMCREMPDALIALGEGHQLGAQECQHQFRGHRWNCSEVWQRNVFAHVIPTASREAAYTYAIASAGAAYAVTAACARGNISTCGCDVRHKATPTGGGTPDEPWKWGGCSADVDFGMRYARRFMDARELERDSRTLMNLHNNRAGRTLVKKMLRTDCKCHGVSGSCVMKTCWKSLPPFRLVGDRLMLKYQKAKTVQAVKGKRGLRLVLSRKKHAGTARAQKPVLDWPKRMELIYLEASPNYCERSLQTGSQGTSGRTCQRTGHGPQSCDLLCCGRGHNTQHIRRTTQCRCQFRWCCEVKCDECDESYEEFTCK
Consider B3, for which the binding result in assay [5] was “binds”.
